Tested on: CA19-9 modified proteins
Assay: CA19-9 IP/MS (iTRAQ) of organoid conditioned media after Dox treatment
Parameters: species or system mouse
Conditions: for 17 0H 5B1 (CA19-9 IP/MS relative abundance) / 17 0H NS19 (CA19-9 IP/MS relative abundance) / 17 8H 5B1 (CA19-9 IP/MS relative abundance) / 17 8H NS19 (CA19-9 IP/MS relative abundance): A217 organoid conditioned media; for 17 0H NS19 (CA19-9 IP/MS relative abundance) / 17 8H NS19 (CA19-9 IP/MS relative abundance) / 20 0H NS19 (CA19-9 IP/MS relative abundance) / 20 8H NS19 (CA19-9 IP/MS relative abundance): NS19-9; for 17 0H NS19 (CA19-9 IP/MS relative abundance): every printed value in this column is 1; for 20 0H 5B1 (CA19-9 IP/MS relative abundance) / 20 0H NS19 (CA19-9 IP/MS relative abundance) / 20 8H 5B1 (CA19-9 IP/MS relative abundance) / 20 8H NS19 (CA19-9 IP/MS relative abundance): A220 organoid conditioned media

Row | Molecule | 17 8H 5B1 (A217 (genetic negative) organoids conditioned media, after 8 hours of treatment, CA19-9 IP with 5B1, relative to 17 0H NS19) | 17 8H NS19 (A217 (genetic negative) organoids conditioned media, after 8 hours of treatment, CA19-9 IP with NS19-9, relative to 17 0H NS19) | 17 0H NS19 (A217 (genetic negative) organoids conditioned media, before treatment (0H), CA19-9 IP with NS19-9, relative abundance, reference channel) | 20 0H 5B1 (A220 (C;R^LSL;F) organoids conditioned media, before treatment (0H), CA19-9 IP with 5B1, relative to 17 0H NS19) | 17 0H 5B1 (CA19-9 IP/MS relative abundance) | 17 0H NS19 (CA19-9 IP/MS relative abundance) | 17 8H 5B1 (CA19-9 IP/MS relative abundance) | 17 8H NS19 (CA19-9 IP/MS relative abundance) | 20 0H 5B1 (CA19-9 IP/MS relative abundance) | 20 0H NS19 (CA19-9 IP/MS relative abundance) | 20 8H 5B1 (CA19-9 IP/MS relative abundance) | 20 8H NS19 (CA19-9 IP/MS relative abundance)
1 | Q8BP47 (protein, UniProt Q8BP47 1-559, looked up, full-length) MSSEVIRGTAEMVLAELYVSDREGNDATGDGTKEKPFKTGLKALMTVGKEPFPTIYVDSQKENERWDVISKSQMKNIKKMWHREQMKNDSREKKEAEDNLRREKNLEEAKKIIIKNDPSLPEPACVKISALEGYRGQRVKVFGWVHRLRRQGKNLMFLVLRDGTGYLQCVLSDDLCQCYNGVVLSTESSVAVYGTLNLTPKGKQAPGGHELSCDFWELVGLAPAGGADNLINEESDVDVQLNNRHMMIRGENMSKILKARSMITRCFRDHFFDRGYCEVTTPTLVQTQVEGGATLFKLDYFGEEAFLTQSSQLYLETCLPALGDVFCIAQSYRAEQSRTRRHLAEFTHVEAECPFLTFEDLLNRLEDLVCDVVDRVLKSPVASIVYELNPNFKPPKRPFRRMNYSDAIEWLKEHDVKKEDGTFYEFGDDIPEAPERLMTDTINEPILLCRFPVEIKSFYMQRCPEDPRLTESVDVLMPNVGEIVGGSMRSWDSEEILEGYKREGIDPAPYYWYTDQRKYGTCPHGGYGLGLERFLSWILNRYHIRDVCLYPRFLQRCRP | 2.31 | 0.588 | 1 | 1.962 |  |  |  |  |  |  |  | 
2 | P21614 (protein, UniProt P21614 1-476, looked up, full-length) MKRVLVLLLALAFGHALERGRDYEKDKVCNELAMLGKEDFRSLSLILYSRKFSSSTFEQVNQLVKEVVSLTEECCAEGADPTCYDTRTSELSVKSCESDAPFPVHPGTPECCTKEGLERKLCMAALSHQPQEFPTYVEPTNDEICEAFRRDPKGFADQFLYEYSSNYGQAPLPLLVAYTKNYLSMVGSCCTSANPTVCFVKERLQMKHLSLLTTMSNRVCSQYAAYGKEKSRLSHLIKLAQKVPTANLENVLPLAEDFTEILSRCCESTSEDCMASELPEHTIKICQNLSKKNSKFEECCQENTPMNIFMCTYFMPAAEPLQLPAIKLPTGKDLCGQSTTQAMDQYTFELSRRTQVPEVFLSKVLEPTLKTLRECCDTQDSVACFSTQSPLLKRQLTSFIEKGQEMCADYSENTFTEYKKKLAERLRTKTPNTSPAELKDMVEKHSDFASKCCSINSPPLYCSSQIDAEMIDTLQS |  |  |  |  | 0.609 | 1 | 0.365 | 0.901 | 0.412 | 0.767 | 0.659 | 0.928
3 | P63038 (protein, UniProt P63038 1-573, looked up, full-length) MLRLPTVLRQMRPVSRALAPHLTRAYAKDVKFGADARALMLQGVDLLADAVAVTMGPKGRTVIIEQSWGSPKVTKDGVTVAKSIDLKDKYKNIGAKLVQDVANNTNEEAGDGTTTATVLARSIAKEGFEKISKGANPVEIRRGVMLAVDAVIAELKKQSKPVTTPEEIAQVATISANGDKDIGNIISDAMKKVGRKGVITVKDGKTLNDELEIIEGMKFDRGYISPYFINTSKGQKCEFQDAYVLLSEKKISSVQSIVPALEIANAHRKPLVIIAEDVDGEALSTLVLNRLKVGLQVVAVKAPGFGDNRKNQLKDMAIATGGAVFGEEGLNLNLEDVQAHDLGKVGEVIVTKDDAMLLKGKGDKAHIEKRIQEITEQLDITTSEYEKEKLNERLAKLSDGVAVLKVGGTSDVEVNEKKDRVTDALNATRAAVEEGIVLGGGCALLRCIPALDSLKPANEDQKIGIEIIKRALKIPAMTIAKNAGVEGSLIVEKILQSSSEVGYDAMLGDFVNMVEKGIIDPTKVVRTALLDAAGVASLLTTAEAVVTEIPKEEKDPGMGAMGGMGGGMGGGMF |  |  |  |  | 1.687 | 1 | 1.65 | 0.534 | 1.241 | 0.45 | 1.434 | 0.547
4 | P10639 (protein, UniProt P10639 1-105, looked up, full-length) MVKLIESKEAFQEALAAAGDKLVVVDFSATWCGPCKMIKPFFHSLCDKYSNVVFLEVDVDDCQDVAADCEVKCMPTFQFYKKGQKVGEFSGANKEKLEASITEYA |  |  |  |  | 1.254 | 1 | 1.833 | 0.442 | 1.19 | 0.368 | 1.885 | 0.353
5 | Q921I9 (protein, UniProt Q921I9 1-245, looked up, full-length) MAGLELLSDQGYRIDGRRAGELRKIQARMGVFAQADGSAYIEQGNTKALAVVYGPHEIRGSRSRALPDRALVNCQYSSATFSTGERKRRPHGDRKSCEMGLQLRQTFEAAILTQLHPRSQIDIYVQVLQADGGTYAACVNAATLAVMDAGIPMRDFVCACSAGFVDGTALADLSHVEEAAGGPQLALALLPASGQIALLEMDSRLHEDHLEQVLEAAAQAARGVHTLLDLVVRQHVQEASVSLGD |  |  |  |  | 1.712 | 1 | 1.445 | 0.62 | 0.996 | 0.471 | 1.83 | 0.54
6 | Q9JHU9 (protein, UniProt Q9JHU9 1-557, looked up, full-length) MEPAAEILVDSPDVVYSPETIEARYEYRTTRVSREGGVLRVQPRATRFTFRTARQVPRLGVMLVGWGGNNGSTLTAAVLANRLRLTWPTRTGRKEANYYGSLTQAGTVNLGLDENGREVFVPFSALLPMVAPNDLVFDGWDISSLNLAEAMRRAQVLDCGLQEQLWPHMESLRPRPSVYIPEFIAANQTARADNLIPGTRAQQLEQIRKDIRDFRSSAGLDKVIVLWTANTERFCEVVPGRNDTAENLLHTIQLGLEVSPSTLFAVASILEDCAFLNGSPQNTLVPGALELASQRHVFVGGDDFKSGQTKVKSVLVDFLIGSGLKTMSIVSYNHLGNNDGQNLSAPLQFRSKEVTKSSVVDDMVHSNHVLYAPGERPDHCVVIKYVPYVGDSKRALDEYTSELMLGGTNTLVLHNTCEDSLLAAPIMLDLVLLTELCQRVSFCTDSDPEPQGFHTVLSLLSFLFKAPLVPPGSPVVNALFRQRSCIENIFRACVGLPPQNHMLLEHKMERPGPGIKPGEVVATSPLPCKKEPTPATNGCTGDANGHPQAPTPKLSTA |  |  |  |  | 1.548 | 1 | 1.629 | 0.219 | 1.283 | 0.08 | 1.42 | 0.159
7 | Q9QWK4 (protein, UniProt Q9QWK4 1-352, looked up, full-length) MAPLFNLMLAILSIFVGSCFSESPTKVQLVGGAHRCEGRVEVEHNGQWGTVCDDGWDRRDVAVVCRELNCGAVIQTPRGASYQPPASEQRVLIQGVDCNGTEDTLAQCELNYDVFDCSHEEDAGAQCENPDSDLLFIPEDVRLVDGPGHCQGRVEVLHQSQWSTVCKAGWNLQVSKVVCRQLGCGRALLTYGSCNKNTQGKGPIWMGKMSCSGQEANLRSCLLSRLENNCTHGEDTWMECEDPFELKLVGGDTPCSGRLEVLHKGSWGSVCDDNWGEKEDQVVCKQLGCGKSLHPSPKTRKIYGPGAGRIWLDDVNCSGKEQSLEFCRHRLWGYHDCTHKEDVEVICTDFDV |  |  |  |  | 0.774 | 1 | 0.455 | 0.536 | 0.67 | 0.655 | 0.55 | 0.456
8 | Q8R317 (protein, UniProt Q8R317 1-582, looked up, full-length) MAESAESGGPPGAQDSAADGGPAEPKIMKVTVKTPKEKEEFAVPENSSVQQFKEEISKRFKSHIDQLVLIFAGKILKDQDTLSQHGIHDGLTVHLVIKTQNRPQDNSAQQTNAPGSTVTSSPAPDSNPTSGSAANSSFGVGGLGGLAGLSSLGLNTTNFSELQSQMQRQLLSNPEMMVQIMENPFVQSMLSNPDLMRQLIMANPQMQQLIQRNPEISHMLNNPDIMRQTLELARNPAMMQEMMRNQDRALSNLESIPGGYNALRRMYTDIQEPMLNAAQEQFGGNPFASLVSSSSSAEGTQPSRTENRDPLPNPWAPQTSQSSPASGTTGSTTNTMSTSGGTATSTPAGQSTSGPSLVPGAGASMFNTPGMQSLLQQITENPQLMQNMLSAPYMRSMLQSLSQNPDLAAQMMLNNPLFAGNPQLQEQMRQQLPTFLQQMQNPDTLSAMSNPRAMQALLQIQQGLQTLATEAPGLIPGFTPGLAAGNSGGSSGTNAPSTAPSEDTNPQGGTAEPGHQQFIQQMLQALAGVNPQLQSPEVRFQQQLEQLSAMGFLNREANLQALIATGGDINAAIERLLGSQPS |  |  |  |  | 1.305 | 1 | 0.595 | 0.684 | 0.798 | 0.631 | 1.503 | 0.572

— patent US12378320B2, “Methods for treating pancreatitis” (Cold Spring Harbor Laboratory, priority 2018, dated 2025)
